# Out of some 360,000 compounds screened, about 10,000 (2.8%) were called active. Inconclusive results, whose numbers are uncertain, are shown with a selection of clear calls. The call rests on the fitted dose curve; in most records, active means well fitted inhibition curve with a large enough effect; inconclusive means small, poorly fitted or top-dose-only effect; inactive means flat fitted curve, though single readings scatter. Where the call is inconclusive, the potency comes from a doubtful curve fit.
# Protein sequences, listed by entry. Tags and fused reporters are not part of them.
# UniProt P53350, whole entry, looked up: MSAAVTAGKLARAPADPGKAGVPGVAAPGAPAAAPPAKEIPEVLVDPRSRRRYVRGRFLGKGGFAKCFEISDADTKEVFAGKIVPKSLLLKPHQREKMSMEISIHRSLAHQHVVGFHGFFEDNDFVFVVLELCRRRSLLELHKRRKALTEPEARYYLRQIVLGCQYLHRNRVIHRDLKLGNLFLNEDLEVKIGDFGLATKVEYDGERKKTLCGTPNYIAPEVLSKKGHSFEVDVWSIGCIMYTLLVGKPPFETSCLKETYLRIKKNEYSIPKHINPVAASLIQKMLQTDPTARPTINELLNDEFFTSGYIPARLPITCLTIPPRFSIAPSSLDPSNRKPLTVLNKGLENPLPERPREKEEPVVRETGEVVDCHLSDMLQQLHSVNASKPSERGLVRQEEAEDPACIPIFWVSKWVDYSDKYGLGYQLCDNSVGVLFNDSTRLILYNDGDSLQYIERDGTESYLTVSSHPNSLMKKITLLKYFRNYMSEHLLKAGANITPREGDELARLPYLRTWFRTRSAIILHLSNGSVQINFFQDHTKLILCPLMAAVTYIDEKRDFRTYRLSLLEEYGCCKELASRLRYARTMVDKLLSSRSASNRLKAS
# Molecular target: Serine/threonine-protein kinase PLK1 (Homo sapiens) (UniProt P53350)
# Experiment: qHTS for Inhibitors of PLK1-PDB (polo-like kinase 1 - polo-box domain): Primary Screen; further: nearly all actives have a fitted effect of over 65% in size; on max response, negative = inhibition: series mostly up to about 57 µM
# Conditions: Plk1 PBD binding of FITC phosphopeptide, fluorescence polarization
# On the % scale 0 is the no-effect control and ±100 the full control effect; potency means the concentration at half of the fitted maximal effect.
SMILES,Potency,"max response, negative = inhibition"
CCn1c(O)c(C=Nc2ccccc2)n(-c2ccccc2)c1=S,"inconclusive: 26.7 µM [inhibitor, partial curve]",–
O=C(NNc1nc(=O)c2cccnc2s1)c1ccccc1O,active: 26.7 µM,–
O=[N+]([O-])c1ccc(NC(=S)NCCc2ccccc2)cc1,"inconclusive: 21.2 µM [inhibitor, partial curve]",–
COCc1cc(=O)n2[nH]c(-c3ccsc3-n3c(C)ccc3C)cc2n1,"inconclusive: 26.7 µM [inhibitor, single point]",–
Cc1ccc(C(=O)NCCNC(=O)c2ccc(F)cc2)cn1,"inconclusive: 21.2 µM [inhibitor, single point]",–
Nc1ccc(Nc2ccccc2N)cc1,"inconclusive: 29.9 µM [inhibitor, partial curve]",–
CC1=NN(c2ccc(Br)cc2)C(=O)/C1=C/c1ccc(-c2ccccc2C(=O)O)o1,active: 11.9 µM,–
CC(C)Sc1nc2c(cnn2-c2ccc(Cl)cc2)c(=O)[nH]1,–,inconclusive: -37.1% [inhibitor]
Cc1cccc(OCC(=O)NCCN2CCOCC2)c1,"inconclusive: 29.9 µM [inhibitor, single point]",–
COc1cc(-c2nc(-c3ccncc3)no2)cc(OC)c1OC,"inconclusive: 33.6 µM [inhibitor, single point]",–
Cc1cccc(C(C)(C)C)c1OCCCCN1CCCC1,"inconclusive: 13.4 µM [inhibitor, partial curve]",–
CNC(=O)CCC(=O)Nc1ccc(C)cc1,"inconclusive: 29.9 µM [inhibitor, single point]",–
COc1ccc(NC(=O)CN(C)C(=O)c2cc(-c3ccco3)nc3ccccc23)cc1,"inconclusive: 37.7 µM [inhibitor, partial curve]",–
O=C(/C=C/c1ccc(Cl)cc1)c1cccnc1,"inconclusive: 18.9 µM [inhibitor, partial curve]",–
CCOC(=O)C1(C)NC(c2ccco2)C2C(=O)N(c3ccccc3)C(=O)C21 (stereo not given),–,inactive: -2.81%
O=C(NNC(=O)c1ccccc1OCc1ccccc1Cl)c1csc(N2CCOCC2)n1,–,inactive: -12.1%
O=C1/C(=C\c2ccco2)NC(=S)N1c1ccccc1,"inconclusive: 42.3 µM [inhibitor, single point]",–
O=C(O)CNC(=O)CC1S/C(=N/N=C/c2ccccc2O)NC1=O (stereo not given),active: 23.8 µM,–
CCN(CC(=O)Nc1ccccc1C(F)(F)F)C(=O)CCc1ccccc1,"inconclusive: 29.9 µM [inhibitor, single point]",–
CCCOc1ccccc1-c1nc(SCCC(=O)O)n[nH]1,–,inconclusive: -34.3% [inhibitor]
O=C(Nc1cccc(Cl)c1)c1ccc2sc([C@H]3C[C@H](O)[C@@H](CO)O3)nc2c1,–,inactive: -11.2%
O=C(CSc1nnc(Cn2nnc3ccccc32)o1)Nc1ccc(Cl)cc1,–,inactive: 3.22%
Cc1sc(N)c(C#N)c1C,"inconclusive: 29.9 µM [inhibitor, partial curve]",–
O=C1CCN(Cc2ccccc2)C=C1c1ccc2ccccc2c1,"inconclusive: 23.8 µM [inhibitor, single point]",–
CN(Cc1ccccc1)C(=O)c1ccccc1-c1ccccc1,–,inconclusive: -32.6% [inhibitor]

SMILES,Potency,"max response, negative = inhibition"
Cc1cc(NC(=O)CSc2nc3ccsc3c(=O)n2Cc2ccccn2)n[nH]1,–,inactive: -7.15%
O=c1c2c([N+](=O)[O-])cc([N+](=O)[O-])cc2sn1-c1ccc(Br)cc1,active: 2.67 µM,–
COc1c(Cl)cc(C(=O)NN)cc1Cl,–,inactive: -21.1%
CCCc1[nH]nc2c1C(c1cccc(OC)c1)C(C#N)=C(N)O2 (stereo not given),"inconclusive: 31.6 µM [inhibitor, partial curve]",–
C=CCN(C(=O)CSC1=NC(=O)CN1C(C)=O)c1nc(C)c(-c2ccccc2)s1,–,inconclusive: -34.4% [inhibitor]
CC1=C(C(N)=O)S(=O)(=O)c2ccccc21,active: 21.2 µM,–
CC1CC(C)CN(C(=O)COC(=O)CN2C(=O)c3ccccc3C2=O)C1 (stereo not given),–,inactive: -12.5%
O=C(c1ccc(Cl)cc1)c1ccc(Oc2cc(NN3CCCCC3)c([N+](=O)[O-])cc2[N+](=O)[O-])cc1,"inconclusive: 26.7 µM [inhibitor, single point]",–
O=C(CSc1nnc(-c2ccco2)c(-c2ccco2)n1)c1ccccc1,active: 16.8 µM,–
O=C(Nc1ccc2snnc2c1)Nc1cccc2ccccc12,active: 29.9 µM,–
Cc1ccc(C)c(OCCC(=O)Nc2ccc(S(=O)(=O)N3CCCC3)cc2)c1,–,inactive: -17.7%
N#Cc1cccc(NC(=O)Nc2cccs2)c1,–,inactive: -13.2%
COc1ccc(Cc2nc3ccc(C(=O)N4CCCCC4CCO)cc3o2)cc1 (stereo not given),active: 26.7 µM,–
Cc1sc(NC(=O)CCCC(=O)O)c(C(N)=O)c1-c1ccccc1,active: 29.9 µM,–
O=C(NCc1ccco1)c1cc2cc(Br)ccc2o1,active: 10.6 µM,–
CC(=O)N1c2ccccc2N(Cc2ccc([N+](=O)[O-])cc2)C(=O)C1(C)C,active: 29.9 µM,–
CC(=O)c1cccc(NC(=O)Cc2ccc3c(c2)CCCC3)c1,"inconclusive: 23.8 µM [inhibitor, partial curve]",–
O=C(CN1C(=O)COc2ccccc21)NCCCN1CCCCC1,–,inconclusive: 4.05% [inhibitor]
Cc1ccc(CNCC(=O)Nc2cccc(S(=O)(=O)NC3=NCCCCC3)c2)cc1,–,inactive: 0.852%
CN(Cc1ccc2ccccc2c1)C(=O)c1ccc(C(F)(F)F)cc1,–,inactive: -15.5%
Cc1nc(SC(C)C(=O)Nc2cccc(C(F)(F)F)c2)c2c(C)c(C(=O)O)sc2n1 (stereo not given),"inconclusive: 26.7 µM [inhibitor, single point]",–
CC1CN(S(=O)(=O)c2ccc(C(=O)Nc3nnc(-c4ccc5c(c4)CCCC5)o3)cc2)CC(C)O1 (stereo not given),"inconclusive: 29.9 µM [inhibitor, single point]",–
O=C(CN1C(=O)S/C(=C\c2ccc(Cl)cc2)C1=O)NCCCn1ccnc1,–,inconclusive: -15.6% [inhibitor]
CC1(C)C=Cc2c(c3c(c4c(=O)c(-c5ccc(O)cc5)coc24)OC(C)(C)CC3)O1,–,inactive: -11.6%
CN1CCc2c(sc3c2c(=O)n(-c2cccc(Cl)c2)c2nncn32)C1,"inconclusive: 29.9 µM [inhibitor, partial curve]",–

# By substructure: those above with an NH in an aromatic ring
SMILES,Potency,"max response, negative = inhibition"
COCc1cc(=O)n2[nH]c(-c3ccsc3-n3c(C)ccc3C)cc2n1,"inconclusive: 26.7 µM [inhibitor, single point]",–
CC(C)Sc1nc2c(cnn2-c2ccc(Cl)cc2)c(=O)[nH]1,–,inconclusive: -37.1% [inhibitor]
CCCOc1ccccc1-c1nc(SCCC(=O)O)n[nH]1,–,inconclusive: -34.3% [inhibitor]
Cc1cc(NC(=O)CSc2nc3ccsc3c(=O)n2Cc2ccccn2)n[nH]1,–,inactive: -7.15%
CCCc1[nH]nc2c1C(c1cccc(OC)c1)C(C#N)=C(N)O2 (stereo not given),"inconclusive: 31.6 µM [inhibitor, partial curve]",–

# (further entries)

SMILES,Potency,"max response, negative = inhibition"
CC(C)(C)n1nnnc1C(c1ccccn1)N(Cc1ccccc1)Cc1ccc(Cl)cc1 (stereo not given),"inconclusive: 37.7 µM [inhibitor, single point]",–
CCN1CCN(CCOCCOc2ccccc2)CC1,–,inactive: -3.39%
O=C(NCC(O)c1nc2ccccc2[nH]1)c1ccc(Br)cc1 (stereo not given),–,inactive: -3.2%
CCOC(=O)Oc1ccc2c(c1)C(C)=CC(C)(C)N2C(=O)OCC,–,inactive: -5.57%
c1ccc(OCc2nn3c(Cn4cnc5ccccc54)nnc3s2)cc1,active: 23.8 µM,–
O=S(=O)(Nc1ncccn1)c1ccc(NC(=S)NCCc2ccc(Cl)cc2)cc1,–,inconclusive: -32% [inhibitor]
CC(C)OC(=O)Cn1cc(C#N)c2ccccc21,–,inactive: -19.2%
CN(c1ccc(OCC(=O)Nc2cc(Cl)ccc2C(=O)O)cc1)S(=O)(=O)c1ccc(F)cc1,"inconclusive: 37.7 µM [inhibitor, single point]",–
CC(=O)Nc1ccc(S(=O)(=O)NCCC(=O)NC(C)c2cccs2)cc1 (stereo not given),–,inactive: 0.319%
COc1ccc(Cc2nnc(SCC(=O)NC3CCCCC3)n2C)cc1,–,inactive: -3.25%
COC(=O)/C=C1/S/C(=N/NC(=O)c2ccccc2)NC1=O,–,inactive: 1.39%
Cc1csc(NC(=O)C2CCCC2)n1,–,inactive: -5.13%
COc1ccc(CN(C)C(=O)Cn2ccsc2=N)cc1OC,"inconclusive: 33.6 µM [inhibitor, partial curve, poor fit]",–
CCOc1cc(/C=C2\N=C(C)OC2=O)cc(Br)c1OCCc1ccccc1,"inconclusive: 33.6 µM [inhibitor, partial curve]",–
O=C(CSc1nccc(=O)[nH]1)Nc1ccc(F)c(Cl)c1,"inconclusive: 23.8 µM [inhibitor, partial curve]",–
NS(=O)(=O)c1ccc(NC(=O)c2ccc(-c3ccccc3)cc2)cc1,–,inconclusive: -38.5% [inhibitor]
Cc1ccc(-n2c(N)c(C(=O)NCc3cccnc3)sc2=S)cc1,active: 28.2 µM,–
CCc1ccc(NC(=O)NCCN2CCN(c3ccc(OC)cc3)CC2)cc1,–,inactive: -2.34%
CCc1ccc(CNC(=O)CCC(=O)n2ncc3cc(C)ccc32)cc1,"inconclusive: 26.7 µM [inhibitor, single point]",–
Cc1cccc(NC(=O)CCS(=O)(=O)c2cccc3nsnc23)c1C,"inconclusive: 21.2 µM [inhibitor, partial curve]",–
CCOC(=O)C1CCN(S(=O)(=O)c2ccc3[nH]c4c(c3c2)CCCC4)CC1,"inconclusive: 23.8 µM [inhibitor, single point]",–
O=C(N=Nc1c(O)[nH]c2ccc(F)cc12)C1COc2ccccc2O1 (stereo not given),active: 26.7 µM,–
CCOc1cc(/C=C(/NC(C)=O)C(=O)O)cc(Cl)c1OCc1cccc(Br)c1,"inconclusive: 37.7 µM [inhibitor, single point]",–
O=C(/C=C/c1ccccc1)NC(=S)N1CCSCC1,"inconclusive: 18.9 µM [inhibitor, single point]",–
COc1ccc(OCC(=O)Nc2ccccc2C(=O)Nc2ccc(C(=O)O)cc2)cc1,–,inactive: -17.7%

# Source: PubChem BioAssay AID720504 (National Center for Advancing Translational Sciences (NCATS), 2013)
